{
  "source": "patent US11220548B2",
  "about": "“Treatment of C1013G/CXCR4-associated Waldenstrom's macroglobulinemia with an anti-CXCR4 antibody” (BRISTOL-MYERS SQUIBB COMPANY, priority 2013, dated 2022)",
  "key": {"WM cells": {"test_system": "WM cells", "conditions": "presence of WHIM-like CXCR4 mutations; cited from earlier work"}, "[1]": {"test_system": "C1013G/CXCR4-WM cell lines (BCWM1; MWCL1)", "test": "Cytotoxicity (MTT) of anti-WM agents, 48 h exposure", "format": "cell-based, human", "conditions": "vs control vector-infected cells", "from_the_text": "FIGS. 13A and 13B show GSEA enrichment plots of multiple drug resistance and response to drug signature genes in C1013G/CXCR4-mutated cells and control vector-infected cells (control cells), respectively. The plotted curves show the enrichment score and reflect the degree to which each gene (vertical lines) is represented at the top or bottom of the ranked gene list. The heat map indicates the relative abundance (left to right) of the genes specifically enriched in the mutated cells as compared with the control cells. Gene sets were considered enriched with a FDR always <0.25. Normalized enrichments score (NES) and FDR are shown per each gene set analyzed. FIGS. 13C-13G show the effects on C1013G/CXCR4-WM cell lines (BCWM1; MWCL1) or control vector-infected cells (control) exposed to everolimus, ibrutinib, idelalisib, bortezomib, and carfilzomib for 48 h.\nEverolimus, idelalisib, ibrutinib, bortezomib, and carfilzomib were purchased from Selleck Chemicals (Houston, Tex.). Drugs were dissolved in dimethylsulfoxide and subsequently diluted in cell culture medium (10% fetal bovine serum) immediately before use."}, "[2]": {"test_system": "Waldenström's macroglobulinemia", "conditions": "cited from earlier work"}},
  "note": "Read-outs that look alike come from different tables or passages of the source. For at least one compound, name, drawing or mass did not settle the structure.",
  "data": [
    {"smiles": "C=CC(=O)N1CCC[C@@H](n2nc(-c3ccc(Oc4ccccc4)cc3)c3c(N)ncnc32)C1", "note": "[ibrutinib]", "values": [
      {"measurement": "sensitivity to growth suppression in WM cells with WHIM-like CXCR4 mutations", "setting": "WM cells", "result": "decreased sensitivity"},
      {"measurement": "sensitivity of C1013G/CXCR4-mutated WM cells compared with unmutated control cells", "setting": "[1]", "result": "resistance"},
      {"measurement": "major response rate", "setting": "[2]; patients with WHIM-like CXCR4 mutations", "result": 30, "unit": "%"},
      {"measurement": "major response rate", "setting": "[2]; patients with wild-type CXCR4", "result": 77, "unit": "%"}
    ]}
  ]
}
